Laboratory results taken from patent publication US20240199557A1, “METHODS OF MAKING 1-BENZYL-4-PHENYL-1H-1,2,3-TRIAZOLE (BPT) AND BPT COATED STRUCTURES” (BOARD OF REGENTS, THE UNIVERSITY OF TEXAS SYSTEM, priority 2022, published 2024).

Key:
[1] = Open circuit potential (OCP) of steel rebar in synthetic pore solution; settings: 2M NaCl
Description: The steel cylinder working electrode (WE) were cross-sectioned and encased in epoxy. The surface was polished using 120 grit to 600 grit SiC paper, resulting in an exposed area of 0.499±0.01 cm^2. A Pt mesh was used as the counter electrode (CE). In terms of the reference electrodes (RE), a Saturated Calomel Electrode (SCE) was used for solutions with chloride and a Mercury Mercurous Sulfate Electrode (MSE) for solutions without chloride, satisfying the electrochemical cell requirements of ASTM standard G5 [38]. Though the experiments without chlorides were measured with MSE, the results were converted to SCE.
The WE, RE, and CE were placed in a test cell containing a synthetic pore solution (SPS). This SPS mimics the concrete pore environment and followed a formula consisting of 8.33 g/L NaOH+23.3 g/L KOH+2.0 g/L Ca(OH)2 (pH:13.6). These solutions were prepared using deionized water from a Milli-Q Water Purification System (resistivity: 18.2-18.7 MΩ·cm) and analytically pure grade reagents.
The testing procedure involved an initial pH measurement of the solution followed by purging the cell with CO2-free air (300 cc/min or more) for 5 minutes, prior to introducing the WE and throughout the experiment to reduce the effects of carbonation. More details can be found elsewhere. 2 M NaCl was chosen for the experiments since previously tested concentrations were not able to break the passive film generated in this highly alkaline environment. After chloride addition, the electrolyte was stirred for 4 h, while continuing to purge with CO2-free air. Then stirring stopped and purging was continued for 20 h to allow for passivation of the substrate. […] This procedure is similar to ASTM G180 [41]. The difference is related to the use of SPS instead of a cement slurry. Using a Gamry Reference 600+Potentiostat, different electrochemical tests were performed including open circuit potential (OCP), linear polarization resistance (LPR) and Anodic Cyclic Polarization (CYP).
Applying the criteria from ASTM C876 [70], it can be seen that most conditions are at low risk of corrosion. […]

[2] = XRD quantitative phase analysis of carbon steel discs after immersion; settings: disc 4: SPS + 2M NaCl + NMP + 3 mM BPT, four-week immersion
Description: Four 3 mm height discs were cut from […] diameter steel rebar and one of their flat faces was polished using silicon carbide sandpaper with 250, 400 and, 600 grit. Subsequently each disc was immersed for 90 seconds in 10 mL of a freshly prepared Clarke solution [42], rinsed thoroughly with water, acetone and dried under a soft stream of dry N2. The crystalline structure of the samples was analyzed on their sheeny face employing X-Ray powder diffraction (XRD) using a Bruker D8 Advance Eco diffractometer applying Cu-Kα1,2 radiation. All samples were scanned at 40 kV and 25 mA in the […] of 31-66° and 2.0 s of step time per 2θ=0.019°. The crystalline planes used to perform the quantitative phase analysis (QPA) are for iron at 2θ=44.6°; [2,0,0] for lepidocrocite at 2θ=47.4° and, [2,2,0] for goethite at 2θ=33.6°.
Subsequently, each one of the discs was immersed in a solution with the composition as described on Table 5 and their surfaces were analyzed using XRD four weeks later. The diffraction patterns are shown in FIG. 9 and the quantitative phase analysis (QPA) data is given on Table 6.

c1ccc(Cn2cc(-c3ccccc3)nn2)cc1 [BPT, 1-Benzyl-4-Phenyl-1H-1,2,3-triazole]
OCP ([1]; 1 mM BPT in SPS): −219.58 mV vs. SCE
OCP ([1]; 2 mM BPT in SPS): −236.13 mV vs. SCE
OCP ([1]; 3 mM BPT in SPS): −258.55 mV vs. SCE
Area under main Fe signal [2]: 33.501
Area under main Lepidocrocite signal [2]: 1.245
